Results are given in words; binding and its absence hold for the method and conditions named. In cells and extracts the contact can be indirect. Here binding means that the protein was enriched with, or labelled near, the bait; the list need not be complete. Tags and fused reporters may be left off the sequences shown. Each block holds one molecule with its values, some of them ahead of it.
Target: T1, T. thermophilus Csm5 with a C-terminal HRV 3C protease site and His10 tag (T. thermophilus) (UniProt Q53W18)
T1 sequence: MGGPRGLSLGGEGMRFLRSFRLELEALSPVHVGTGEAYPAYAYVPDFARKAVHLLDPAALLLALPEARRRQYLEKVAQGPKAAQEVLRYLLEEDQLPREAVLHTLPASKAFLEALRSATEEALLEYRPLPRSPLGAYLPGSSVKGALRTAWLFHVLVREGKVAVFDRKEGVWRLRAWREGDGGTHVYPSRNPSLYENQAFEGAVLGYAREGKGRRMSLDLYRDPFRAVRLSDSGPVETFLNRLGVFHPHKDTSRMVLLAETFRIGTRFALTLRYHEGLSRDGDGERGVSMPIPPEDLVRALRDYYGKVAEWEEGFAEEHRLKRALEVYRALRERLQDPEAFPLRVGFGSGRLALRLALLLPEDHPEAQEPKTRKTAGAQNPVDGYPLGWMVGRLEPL
Test: affinity purification with mass spectrometry; five Csm subunits, Cas6A and crRNA 4.5 co-expressed in E. coli; complex isolated from the lysate on Ni-NTA by the His10 tag on Csm5, washed with 500 mM KCl, tag cleaved, Superose 6; subunits found by SDS-PAGE and LC-MS/MS of a trypsin digest

binding: binds
Molecule: T. thermophilus Csm2

binding: binds
B1: T. thermophilus Cas10/Csm1 (natural protein, UniProt Q53W19 1-805, looked up)
chain: MLGDGLSVALAGLLHDVGKLYSRARWGERDDQVPDRTHTAYTAHFVREHAGLFRGAGLDPDWLARTASRHHEGWRDRPQYRPETPEEWCVALADTYASKEREEGEGGGSPPEVPLSPPFRRLLLGGEEGREGGYSPVGAGGRVGLEAGGLYPEERPNVSKDVYKRLLERLEGRLEEMARFSLGKEALVLNLALALQETLSLVPSDTQSEPDVSLYDHLRLTAAIAHALWLFHGGSPSAQNLRQDGEKFLLVVGDMGGIQGHIYRIAGAEAGVGGIAKRLRARSLEVSLAAEAMALGLLWRLGLTSLNRILGAGGKFYLLLPNTEEARAALEGTREAWGRWALKRGGSLVPHLAWVAFRGQDFRDFAALLKRLHEALAREKLRPFAFLASTGGVLGAPLRPCAACGLEPARRDEPGSLCPDCEREAALGARLPRSDRVGFFLEEAPRPYLDFPGLKVGLGGPLEGAFHLFRARLDFAPWPDPSEAKPLLGHLPRVEHALKAKGWSLEAYRAWAEEEGLLEDEEPHPEKVLTFAELAALSEGAPYLGALMLDADRMGEAFATGFRREGRDLATPSRLAALSRTLEVFFTTEVLTLLEEPRRYRERLGWDDLEAQRKEARYPLLYSVYSGGDDLFLLGPWDALLDFALDLERLYRLFTRHPRLTLSGGFLLVPPSLPVPELARLLGEAEKRAKAEGRERLFLFGQAVPWETLRGLRAWAEGLRQDLRAERVSRAQVYRWLLLWRRFSPLEDPGERMRYKPLLAYALRRVRERDEEAWKRYLKLLDHQDPAWAYLPVWVQWALYRERRV
notes: Cas10/Csm1 of Thermus thermophilus (locus TTHB147), codon-optimized gene; also called TTHB147; source: E. coli BL21(λDE3), co-expressed with the other Csm subunits, Cas6A and crRNA 4.5; in lysate, and co-purified in the TthCsm complex (Ni-NTA, Superose 6)

Source: article PMC5256923, “RNA and DNA Targeting by a Reconstituted Thermus thermophilus Type III-A CRISPR-Cas System” (PLoS ONE, 2017)
